No constants are given. Whether binding was seen depends on the method and setting. In cells and extracts the contact can be indirect. Some entries that bind do so weakly or less than the wild type. Sequences can lack the tags named with a protein.
What was measured:
FLAG-RNF144A (human) = target: T1, FLAG-RNF144A (human) (UniProt P50876); test: co-IP
T1 sequence: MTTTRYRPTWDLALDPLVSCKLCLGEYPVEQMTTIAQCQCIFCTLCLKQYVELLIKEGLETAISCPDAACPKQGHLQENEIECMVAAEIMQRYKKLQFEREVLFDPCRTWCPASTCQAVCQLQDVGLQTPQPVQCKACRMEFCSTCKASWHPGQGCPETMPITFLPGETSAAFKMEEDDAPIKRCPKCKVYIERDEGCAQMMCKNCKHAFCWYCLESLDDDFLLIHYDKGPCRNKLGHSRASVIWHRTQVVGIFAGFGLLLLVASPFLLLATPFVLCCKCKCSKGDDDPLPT

The chains behind the UniProt entries cited, without tags or fusion partners. Residues count along the entry.
UniProt P14784, residues 27-551: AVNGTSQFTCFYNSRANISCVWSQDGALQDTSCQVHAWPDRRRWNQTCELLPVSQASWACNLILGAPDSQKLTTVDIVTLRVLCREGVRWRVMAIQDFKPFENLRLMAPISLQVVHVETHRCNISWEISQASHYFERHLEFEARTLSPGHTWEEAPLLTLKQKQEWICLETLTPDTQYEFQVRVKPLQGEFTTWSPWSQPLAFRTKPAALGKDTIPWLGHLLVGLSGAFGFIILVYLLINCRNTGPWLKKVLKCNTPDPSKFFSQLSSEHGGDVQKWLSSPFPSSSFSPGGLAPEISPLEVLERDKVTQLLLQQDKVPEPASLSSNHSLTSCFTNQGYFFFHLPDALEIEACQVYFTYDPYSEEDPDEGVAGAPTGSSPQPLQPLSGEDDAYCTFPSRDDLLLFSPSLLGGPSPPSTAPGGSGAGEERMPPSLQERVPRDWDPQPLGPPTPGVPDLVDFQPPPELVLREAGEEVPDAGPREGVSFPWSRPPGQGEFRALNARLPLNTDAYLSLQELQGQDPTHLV
UniProt P51692: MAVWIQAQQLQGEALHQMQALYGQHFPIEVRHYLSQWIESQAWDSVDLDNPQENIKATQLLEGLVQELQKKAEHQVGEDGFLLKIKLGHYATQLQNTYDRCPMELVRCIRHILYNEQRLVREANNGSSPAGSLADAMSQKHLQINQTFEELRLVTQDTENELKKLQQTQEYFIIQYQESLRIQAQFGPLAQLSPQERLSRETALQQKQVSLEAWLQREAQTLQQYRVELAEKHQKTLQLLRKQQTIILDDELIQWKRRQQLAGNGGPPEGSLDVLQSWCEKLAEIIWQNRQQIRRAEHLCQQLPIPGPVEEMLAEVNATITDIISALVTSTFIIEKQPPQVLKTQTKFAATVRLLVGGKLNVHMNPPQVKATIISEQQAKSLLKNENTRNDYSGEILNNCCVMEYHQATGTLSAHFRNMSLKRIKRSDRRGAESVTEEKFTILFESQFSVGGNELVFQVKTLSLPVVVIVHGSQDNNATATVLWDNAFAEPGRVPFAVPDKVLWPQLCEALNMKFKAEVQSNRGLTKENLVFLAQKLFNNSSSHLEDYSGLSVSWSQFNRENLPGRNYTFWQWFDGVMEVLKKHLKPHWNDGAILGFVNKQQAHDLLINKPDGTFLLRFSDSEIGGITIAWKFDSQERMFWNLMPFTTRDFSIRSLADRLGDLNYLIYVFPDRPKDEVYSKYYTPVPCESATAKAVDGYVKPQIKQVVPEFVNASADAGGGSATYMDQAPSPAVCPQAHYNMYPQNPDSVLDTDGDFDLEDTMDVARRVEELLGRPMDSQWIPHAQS
UniProt P42229: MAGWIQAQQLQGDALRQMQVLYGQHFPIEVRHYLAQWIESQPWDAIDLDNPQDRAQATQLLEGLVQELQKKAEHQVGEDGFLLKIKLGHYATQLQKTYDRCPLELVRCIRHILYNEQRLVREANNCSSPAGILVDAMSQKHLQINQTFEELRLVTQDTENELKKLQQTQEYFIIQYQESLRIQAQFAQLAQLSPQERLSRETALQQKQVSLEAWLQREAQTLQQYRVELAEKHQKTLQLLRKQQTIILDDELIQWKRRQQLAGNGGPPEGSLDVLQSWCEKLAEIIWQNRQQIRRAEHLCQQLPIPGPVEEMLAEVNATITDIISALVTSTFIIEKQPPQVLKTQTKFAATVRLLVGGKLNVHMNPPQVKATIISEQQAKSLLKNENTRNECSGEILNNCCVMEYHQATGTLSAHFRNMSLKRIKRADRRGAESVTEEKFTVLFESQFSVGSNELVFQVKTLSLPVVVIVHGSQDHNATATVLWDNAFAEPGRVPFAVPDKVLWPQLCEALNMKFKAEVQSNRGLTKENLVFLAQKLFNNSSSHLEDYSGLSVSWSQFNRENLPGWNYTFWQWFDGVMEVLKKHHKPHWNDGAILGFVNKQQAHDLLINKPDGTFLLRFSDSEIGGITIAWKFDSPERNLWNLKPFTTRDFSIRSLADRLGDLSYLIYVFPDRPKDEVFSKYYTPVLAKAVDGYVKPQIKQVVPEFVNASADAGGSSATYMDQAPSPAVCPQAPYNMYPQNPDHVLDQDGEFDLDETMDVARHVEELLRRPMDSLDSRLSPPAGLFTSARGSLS

IL-2Rβ = IL-2Rβ (UniProt P14784); test: co-IP

RAF1-GFP (from UniProt P04049 1-648) (enzyme)
binding (FLAG-RNF144A (human)): binds

STAT5B (from UniProt P51692 1-787)
binding (FLAG-RNF144A (human)): binds

STAT5A (from UniProt P42229 1-794)
binding (FLAG-RNF144A (human)): binds

IL-2Rβ (from UniProt P14784 27-551) (receptor)
binding (FLAG-RNF144A (human)): binds

B1: FLAG-RNF144A (enzyme, UniProt P50876 1-292)
chain: T1 sequence
binding (IL-2Rβ): binds
